# In publication PMC10655391, “Inhibition of Hsp110-STAT3 interaction in endothelial cells alleviates vascular remodeling in hypoxic pulmonary arterial Hypertension model” (Respiratory Research, 2023):
# By UniProt entry, the sequences of proteins in these tests, tags left out.
# UniProt P40763: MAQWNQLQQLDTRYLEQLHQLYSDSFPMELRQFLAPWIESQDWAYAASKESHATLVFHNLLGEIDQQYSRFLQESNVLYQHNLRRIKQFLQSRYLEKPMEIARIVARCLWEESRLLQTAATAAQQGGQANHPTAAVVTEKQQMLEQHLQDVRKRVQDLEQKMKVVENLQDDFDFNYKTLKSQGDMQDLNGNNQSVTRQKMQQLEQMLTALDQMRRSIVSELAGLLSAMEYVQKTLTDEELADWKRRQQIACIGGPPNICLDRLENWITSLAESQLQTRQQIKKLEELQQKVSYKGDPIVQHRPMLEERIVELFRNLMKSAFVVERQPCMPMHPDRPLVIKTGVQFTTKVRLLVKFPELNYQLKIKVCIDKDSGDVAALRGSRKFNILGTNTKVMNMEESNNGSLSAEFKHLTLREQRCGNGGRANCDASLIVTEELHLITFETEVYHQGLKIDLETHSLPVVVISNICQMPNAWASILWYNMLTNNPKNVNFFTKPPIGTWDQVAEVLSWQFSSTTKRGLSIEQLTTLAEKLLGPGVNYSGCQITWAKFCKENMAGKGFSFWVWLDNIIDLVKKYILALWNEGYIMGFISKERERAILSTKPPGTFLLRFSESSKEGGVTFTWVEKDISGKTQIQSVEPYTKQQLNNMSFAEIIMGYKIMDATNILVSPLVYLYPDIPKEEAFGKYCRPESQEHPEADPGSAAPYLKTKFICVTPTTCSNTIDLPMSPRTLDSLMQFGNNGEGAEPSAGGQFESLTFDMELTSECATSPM
# UniProt Q92598: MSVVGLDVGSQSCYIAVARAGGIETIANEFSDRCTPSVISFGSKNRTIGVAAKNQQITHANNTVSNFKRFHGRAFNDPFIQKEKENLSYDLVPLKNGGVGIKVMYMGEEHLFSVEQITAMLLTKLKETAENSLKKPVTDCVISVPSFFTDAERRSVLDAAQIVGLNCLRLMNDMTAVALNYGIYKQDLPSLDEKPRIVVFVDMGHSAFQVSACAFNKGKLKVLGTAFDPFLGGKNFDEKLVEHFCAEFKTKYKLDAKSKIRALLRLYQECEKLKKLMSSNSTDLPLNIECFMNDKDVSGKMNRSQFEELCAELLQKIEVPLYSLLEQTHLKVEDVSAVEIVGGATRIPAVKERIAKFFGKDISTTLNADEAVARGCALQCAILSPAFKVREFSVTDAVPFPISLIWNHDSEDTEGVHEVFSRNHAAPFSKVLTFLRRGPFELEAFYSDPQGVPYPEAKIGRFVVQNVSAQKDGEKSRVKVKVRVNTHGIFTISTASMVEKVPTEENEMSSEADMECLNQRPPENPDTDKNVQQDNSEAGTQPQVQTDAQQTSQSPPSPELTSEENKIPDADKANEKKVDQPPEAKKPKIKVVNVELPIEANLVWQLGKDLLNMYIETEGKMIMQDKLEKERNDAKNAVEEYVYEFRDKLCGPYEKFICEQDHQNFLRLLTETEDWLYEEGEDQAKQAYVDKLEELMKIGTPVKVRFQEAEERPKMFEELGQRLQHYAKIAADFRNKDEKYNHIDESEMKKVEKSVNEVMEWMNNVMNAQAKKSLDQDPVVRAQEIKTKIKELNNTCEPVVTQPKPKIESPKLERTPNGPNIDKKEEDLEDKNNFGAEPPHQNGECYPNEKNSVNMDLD
# No constants are given. Whether binding was seen depends on the method and setting. Binding seen in cells or lysates may run through a third protein. Some entries that bind do so weakly or less than the wild type.
# Assays:
# [1] = target: signal transducer and activator of transcription 3 (human (endogenous in HCT116 and HPAECs)) (UniProt P40763); assay: co-IP; endogenous proteins in HPAEC lysate (IP buffer, 4 °C); precipitated with mouse STAT3 antibody overnight at 4 °C and protein A agarose, blotted for Hsp110; cells treated with compound 6 (10 µM) or KNK437 (20 µM) for 48 h or not treated
# [2] = target: signal transducer and activator of transcription 3 (human (endogenous in HCT116 and HPAECs)) (UniProt P40763); assay: co-IP; endogenous proteins in HCT116 lysate (IP buffer, 4 °C); precipitated with mouse STAT3 antibody overnight at 4 °C and protein A agarose, blotted for Hsp110; cells treated with compound 6 (10 µM) or KNK437 (20 µM) for 48 h or not treated
substance,measurement,setting,value
Heat shock protein 110 (from UniProt Q92598 1-858),binding,[1],binds
same,binding,[2],binds
